These results are taken from paper PMC13193366.

The target in test [1] is T1, RFP-ARR1 (35Spro::RFP-ARR1; ARABIDOPSIS RESPONSE REGULATOR1) (Arabidopsis thaliana) (UniProt Q940D0).
T1 sequence: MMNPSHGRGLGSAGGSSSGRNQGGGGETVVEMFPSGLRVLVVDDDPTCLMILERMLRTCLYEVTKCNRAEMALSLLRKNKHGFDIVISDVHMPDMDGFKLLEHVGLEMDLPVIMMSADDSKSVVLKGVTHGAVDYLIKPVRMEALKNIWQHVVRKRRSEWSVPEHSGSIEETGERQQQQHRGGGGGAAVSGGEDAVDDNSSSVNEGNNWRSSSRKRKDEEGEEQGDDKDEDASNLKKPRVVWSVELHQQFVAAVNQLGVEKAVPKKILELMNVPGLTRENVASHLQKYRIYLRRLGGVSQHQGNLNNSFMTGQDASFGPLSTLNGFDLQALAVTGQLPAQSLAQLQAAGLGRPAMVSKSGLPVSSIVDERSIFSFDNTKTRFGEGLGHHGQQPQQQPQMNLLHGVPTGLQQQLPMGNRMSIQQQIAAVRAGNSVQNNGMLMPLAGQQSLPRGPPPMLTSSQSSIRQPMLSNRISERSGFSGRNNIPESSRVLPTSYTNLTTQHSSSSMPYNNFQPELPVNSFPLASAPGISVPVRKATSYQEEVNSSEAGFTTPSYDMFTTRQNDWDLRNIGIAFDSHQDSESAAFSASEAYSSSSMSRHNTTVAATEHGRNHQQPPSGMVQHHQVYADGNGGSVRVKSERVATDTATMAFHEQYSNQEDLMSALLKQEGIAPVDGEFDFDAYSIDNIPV
The test can be described thus: FRET or BRET; FLIM-FRET: GFP fluorescence lifetime in nuclei of Nicotiana tabacum leaf epidermal cells co-expressing GFP- and mCherry/RFP-tagged proteins; measured within nuclear speckles (AtPWO1, SmPWOa) or in the nucleolus (SmPWOb). (In BRET a luciferase serves as donor, and the signal depends on an acceptor being close.)

The target in test [2] is T2, RFP-ARR2 (35Spro::RFP-ARR2) (Arabidopsis thaliana) (UniProt Q9ZWJ9).
T2 sequence: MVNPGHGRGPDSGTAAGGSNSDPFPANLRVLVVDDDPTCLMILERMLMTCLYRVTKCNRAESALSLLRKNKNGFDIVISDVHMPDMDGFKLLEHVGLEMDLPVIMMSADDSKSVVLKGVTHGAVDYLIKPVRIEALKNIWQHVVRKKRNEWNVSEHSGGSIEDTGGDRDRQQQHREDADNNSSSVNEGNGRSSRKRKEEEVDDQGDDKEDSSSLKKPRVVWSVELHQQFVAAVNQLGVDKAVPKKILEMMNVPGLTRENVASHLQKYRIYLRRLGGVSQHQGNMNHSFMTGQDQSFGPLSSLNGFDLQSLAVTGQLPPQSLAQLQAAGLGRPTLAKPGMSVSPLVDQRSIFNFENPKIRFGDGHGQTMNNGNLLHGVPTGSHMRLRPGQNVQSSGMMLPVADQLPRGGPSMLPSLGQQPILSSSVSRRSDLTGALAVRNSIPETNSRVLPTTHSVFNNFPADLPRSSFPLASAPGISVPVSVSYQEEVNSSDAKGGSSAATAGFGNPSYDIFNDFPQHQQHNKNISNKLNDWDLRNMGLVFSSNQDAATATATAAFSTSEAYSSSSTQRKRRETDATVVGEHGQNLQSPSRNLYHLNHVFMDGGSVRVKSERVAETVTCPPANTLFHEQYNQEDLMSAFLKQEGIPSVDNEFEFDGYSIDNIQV
The test is described as above.

The target of test [3] is T3, PpCLF (Physcomitrium patens CLF), yeast two-hybrid fusion (Physcomitrium patens) (UniProt C0STZ0).
T3 sequence: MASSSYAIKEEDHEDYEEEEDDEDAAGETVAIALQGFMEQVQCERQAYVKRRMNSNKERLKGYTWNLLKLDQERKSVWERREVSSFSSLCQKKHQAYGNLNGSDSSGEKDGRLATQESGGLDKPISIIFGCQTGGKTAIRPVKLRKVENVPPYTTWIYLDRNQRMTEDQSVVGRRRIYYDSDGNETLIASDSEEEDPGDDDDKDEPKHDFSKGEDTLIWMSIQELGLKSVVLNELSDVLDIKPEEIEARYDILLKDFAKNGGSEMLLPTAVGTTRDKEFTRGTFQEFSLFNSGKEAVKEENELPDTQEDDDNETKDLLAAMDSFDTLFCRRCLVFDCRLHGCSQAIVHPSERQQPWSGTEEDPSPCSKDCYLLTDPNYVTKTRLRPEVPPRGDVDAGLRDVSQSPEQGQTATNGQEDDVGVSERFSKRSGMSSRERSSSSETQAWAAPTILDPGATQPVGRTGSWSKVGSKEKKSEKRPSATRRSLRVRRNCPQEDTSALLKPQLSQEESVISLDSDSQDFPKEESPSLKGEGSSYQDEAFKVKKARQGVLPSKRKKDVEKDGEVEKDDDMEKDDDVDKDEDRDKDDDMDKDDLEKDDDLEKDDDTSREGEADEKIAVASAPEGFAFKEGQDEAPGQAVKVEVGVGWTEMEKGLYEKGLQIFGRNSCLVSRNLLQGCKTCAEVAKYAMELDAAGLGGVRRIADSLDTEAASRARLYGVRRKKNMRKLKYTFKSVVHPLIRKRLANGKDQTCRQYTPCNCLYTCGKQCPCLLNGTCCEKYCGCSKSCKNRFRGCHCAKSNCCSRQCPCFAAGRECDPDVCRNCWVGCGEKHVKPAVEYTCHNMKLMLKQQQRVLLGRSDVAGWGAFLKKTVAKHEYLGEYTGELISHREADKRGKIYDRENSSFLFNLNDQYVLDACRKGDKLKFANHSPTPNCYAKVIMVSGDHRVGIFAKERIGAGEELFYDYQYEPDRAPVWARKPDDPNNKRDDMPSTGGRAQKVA
Briefly: two-hybrid; yeast two-hybrid of AtPWO2 (Fig. S12C); selection medium not told for this experiment.

No constants are given. Whether binding was seen depends on the method and setting. For part of these data: In cells and extracts the contact can be indirect. Tags and fused reporters may be left off the sequences shown.

B1: AtPWO1-GFP (i35Spro::AtPWO1-GFP) (protein, UniProt Q9M9N3 1-769)
chain: MASPGSGAVDWTVGSIVWVRRRNGSWWPGRILGQEDLDSTHITSPRSGTPVKLLGREDASVDWYNLEKSKRVKPFRCGDFDECIERVESSQAMIIKKREKYARREDAILHALELEKEMLKREGKLVPEKARDDSLDATKERMAIVRVQDTSNGTRESTDYLRTNHVGDVMHLLRDKEEDQPSCEDEAVPRMRGLQDFGLRTASSKRKISCSNGPDTSFKYLARSNSSASSSGDHSMERPIYTLGKEKTKSRAEAKRTKYMFTPSESNDVSDLHENLLSHRDAMHSSFAGGDTRYSDYDPPNFLEDMESDYSESETDSSDMEEDTDDDIPLLSGAGRHSERRNTFSRHTSGEDESTSSEEDHYESSISGDSSYLYSQNPNNEASTVSNWQHKGKRNFRTLPRRSARKRKLHRNRLEDGRYCEYKRRAFGQKPMGYGLDFNGINDMSDGTDDTDPNERQFGDRMIVPGDDYQLSNVVASRCKNIYSHDMLDWDDDPWEGRIGMKKRGEEKLEGLGQEFDVSERHFGRKTYSSLMDVDLEVRGSYQKGPVPIVSLMSKLNGRAIIGHPVEVEVLADGSSESYIQTIDYFGNETTYQDKTFLLPSAWKTARRSNSRVPRLQPFSSSVEADDDATYDYSLADQGRKPLVKKLGLGHFSNDDNSVRRNSSLRIPRPPAERKQQHQQQQKKLLKNTNATASQKTRALSSFSGEQGHNGMKASRDRTHELSNRRVLPGPPTVACIPVKLVYSRLLEKINRPPSKPTAKAFNERRRVQ
As to B1, the binding result in test [1] and in test [2] was “no binding” in each case.

B2: AtPWO2, yeast two-hybrid fusion (protein, UniProt P59278 1-597)
chain: MESNDDRNLEAINASVGRLVWVRRRNGSWWPGQTLVHDQVPDNSLVGPKVGTPIKLLGRDDVSVDWYILENSKTVKAFRCGEYDTCIEKAKASSSKKRSGKCTLREDAINNALKIENEHLAKEDDNLCNLSGEEDSKRCLSGKEDEDSGSSDAEETEDDELASAPEQLQSSISSQEMNNVGASKVQSKRRRTPNDSEDDGTEGVKRMRGLEDIGKEQAGGIVEHKQDLDLICAVGLSDSVSNGNTIANGNKVCSPSSLKRNVSECSKRKNRRRQLTKVLESTAMVSVPVTCDQGVSLDCQGIYDSKVSGMESVESMKSVSVVINNNSDSTGVSCEDAYENVVGASHNNKAKDSEISSISVSAEDDSSDRLFDVPLTGEENHSEGFPAACRISSPRKALVTDLTRRCGRNSHNVFVKNEASNGSACTSPPASEPVNCILSGIEKNTSKWQLKGKRNSRQMSKKQEERRNVYGEEANNNSSTPHSTLYEVKIEVKASYTKPRVPLVSRMSELSGKAIVGHPLSVEILEEDYSNGMVMPPVVAKAKSLPKKNGKKQTTEKAKETVVACIPLKVVFSRINEVLKGSARQTQHRALPSAAKT
Turning to B2, the binding result in test [3] is given as “no binding”.
